From US20240108662A1, “ENGINEERED CELLS FUNCTIONALIZED WITH IMMUNE CHECKPOINT MOLECULES AND USES THEREOF” (The University of North Carolina at Chapel Hill, priority 2020, published 2024) come the findings set out here.

This data set in a line: Proteomic analysis of native murine pancreata and decelled pancreatic ECM (Table 1). The conditions noted are these: for Pancreatic ECM: Mean of log2(intensities): abundance of the listed protein in decelled pancreatic ECM; for Native pancreas tissue: Mean of log2(intensities): abundance of the listed protein in native murine pancreas tissue. The arrangement: species or system mouse.

B1: Q8BPS4 (protein, UniProt Q8BPS4 1-441, looked up)
chain: MGGLRLLAVALTCSCWWPQGGQGKTLRGSFSSAAARDAQGQSIGHFEFHGDHALLCVRINNVAVAVGKEAKLYLFQAQEWLKLLESSPGYSCSERLARAQLTVTVTQTEHNLTVSQLPAPQTWRVFYADKFTCRDDSESPQGEEIPFEMVLLNPDAEGNPLDHFSARESGLHEFFFLLVLVYFVTACIYAQSLWQAMKKGGPMHTILKVLTTALLLQAASALANYIHLSRYSRDGLGVPLIGSLAEVFDIASQIQMLYLLLSLCMGWTIVRMKKSQSRPLQWDSTPASTGIAVFIVITQSILLLWEQFEDTSHHSAHSHRSLAGLLLIVLRICLALSLGCGLYQVITVERSALKREFYITFAKGCILWFLCQPALACIAVAFNDYQRDKLITVGVILCQAVAMVILYRLFLSHSLYWEVSSLSSVTLPLTISSAHRGRPHF
modifications: full-length
For B1, the “Pancreatic ECM: Mean of log2(intensities)” value was 26.07 a.u and the “Native pancreas tissue: Mean of log2(intensities)” value is recorded as 22.09 a.u.

B2: O35682 (protein, UniProt O35682 1-320, looked up)
chain: MPVTVTRTTITTTTSSSTTVGSARALTQPLGLLRLLQLISTCVAFSLVASVGAWTGPMGNWAMFTWCFCFAVTLIILIVELGGLQAHFPLSWRNFPITFACYAALFCLSSSIIYPTTYVQFLAHGRTRDHAIAATTFSCVACLAYATEVAWTRARPGEITGYMATVPGLLKVFETFVACIIFAFISEPLLYNQKPALEWCVAVYAICFILAGVTILLNLGDCTNVLPIPFPTFLSGLALLSVLFYATAIVLWPLYQFDQRYQGQPRRSMDPSCTRSISYIQPNTVCFWDRRLAVSILTGINLLAYVSDLVYSTRLVFVKV
modifications: full-length
With B2, the “Pancreatic ECM: Mean of log2(intensities)” value came to 25.42 a.u and the “Native pancreas tissue: Mean of log2(intensities)” value is recorded as 21.74 a.u.

B3: P55096 (protein, UniProt P55096 1-659, looked up)
chain: MAAFSKYLTARNTSLAGAAFLLLCLLHKRRRALGLHGKKSGKPPLQNNEKEGKKERAVVDKVFLSRLSQILKIMVPRTFCKETGYLLLIAVMLVSRTYCDVWMIQNGTLIESGIIGRSSKDFKRYLFNFIAAMPLISLVNNFLKYGLNELKLCFRVRLTRYLYEEYLQAFTYYKMGNLDNRIANPDQLLTQDVEKFCNSVVDLYSNLSKPFLDIVLYIFKLTSAIGAQGPASMMAYLLVSGLFLTRLRRPIGKMTIMEQKYEGEYRYVNSRLITNSEEIAFYNGNKREKQTIHSVFRKLVEHLHNFIFFRFSMGFIDSIIAKYVATVVGYLVVSRPFLDLAHPRHLHSTHSELLEDYYQSGRMLLRMSQALGRIVLAGREMTRLAGFTARITELMQVLKDLNHGRYERTMVSQQEKGIEGAQASPLVPGAGEIINTDNIIKFDHVPLATPNGDILIQDLSFEVRSGANVLICGPNGCGKSSLFRVLGELWPLFGGRLTKPERGKLFYVPQRPYMTLGTLRDQVIYPDGKEDQKKRGISDQVLKEYLDNVQLGHILEREGGWDSVQDWMDVLSGGEKQRMAMARLFYHKPQFAILDECTSAVSVDVEDYIYSHCRKVGITLFTVSHRKSLWKHHEYYLHMDGRGNYEFKKITEDTVEFGS
modifications: full-length
B3: the “Pancreatic ECM: Mean of log2(intensities)” value is on record as 24.94 a.u and the “Native pancreas tissue: Mean of log2(intensities)” value stood at 21.01 a.u.

B4: Q80WV3 (protein, UniProt Q80WV3 1-530, looked up)
chain: MSRSSPRALPPGALPRPLPAAPAAVQRALLPPWPRRAGRRWPASPLGMKVFRRKALVLCAGYALLLVLTMLNLLDYKWHKEPLQQCNPDGPLGAAVGAAGAGWGRPGSPPAAPPRAHSRMDPRTPYRPPAAGVGAVPAAAAGSAGAAASLGNATRGTRGGGDKRQLVYVFTTWRSGSSFFGELFNQNPEVFFLYEPVWHVWQKLYPGDAVSLQGAARDMLSALYRCDLSVFQLYSPAGSGGRNLTTLGIFGAATNKVVCSSPLCPAYRKEVVGLVDDRVCKKCPPQRLARFEEECRKYRTLVIKGVRVFDVAVLAPLLKDPALDLKVIHLVRDPRAVASSRIRSRHGLIRESLQVVRSRDPRAHRMPFLEAAGHKLGAKKEGMGGPADYHALGAMEVICNSMAKTLQTALQPPDWLQGHYLVVRYEDLVGDPVKTLRRVYDFVGLLVSPEMEQFALNMTSGSGSSSKPFVVSARNATQAANAWRTALTFQQIKQVEEFCYQPMAVLGYERVNSPEEVKDLSKTLLRKPRL
modifications: full-length
Turning to B4, the “Pancreatic ECM: Mean of log2(intensities)” value came out at 25.47 a.u and the “Native pancreas tissue: Mean of log2(intensities)” value amounted to 21.76 a.u.

B5: Q9DBU0 (protein, UniProt Q9DBU0 1-606, looked up)
chain: MTVLGYPRSWSCHCLPVLILLLGIGHGPWVEGVTHYKPGDPVILYVNKVGPYHNPQETYHYYQLPVCCPEKIRHKSLSLGEVLDGDRMAESLYEIRFRENVEKRILCHMQLSSAQVEQLRQAIEELYYFEFVVDDLPIRGFVGYMEESGFLPHSHKIGLWTHLDFHLEFHGDRIIFANVSVRDVKPHSLDGLRSDELLGLTHTYSVRWSETSVEHRSDRRRGDDGGFFPRTLEIHWLSIINSMVLVFLLVGFVAVILMRVLRNDLARYNLDEETSSGGSSDDFDQGDNGWKIIHTDVFRFPPYRGLLCAVLGVGAQFLALGTGIIVMALLGMFNVHRHGAINSAAILLYALTCCISGYVSSHFYRQIGGERWVWNIILTSSLFSVPFFLTWSVVNSVHWANGSTQALPATTILLLLTVWLLVGFPLTVIGGIFGKNNASPFDAPCRTKNIAREIPPQPWYKSTVIHMTVGGFLPFSAISVELYYIFATVWGREQYTLYGILFFVFAILLSVGACISIALTYFQLSGEDYRWWWRSVLSVGSTGLFIFLYSVFYYARRSNMSGAVQTVEFFGYSLLTGYVFFLMLGTISFFSSLKFIRYIYVNLKMD
modifications: full-length
With B5, the “Pancreatic ECM: Mean of log2(intensities)” value was determined as 25.42 a.u and the “Native pancreas tissue: Mean of log2(intensities)” value turned out to be 21.68 a.u.

B6: Q5U458 (protein, UniProt Q5U458 1-559, looked up)
chain: MATALSEEELDNEDYYSLLNVRREASSEELKAAYRRLCMLYHPDKHRDPELKSQAERLFNLVHQAYEVLSDPQTRAIYDIYGKRGLEMEGWEVVERKRTPAEIREEFERLQREREERRLQQRTNPKGTISVGVDATDLFDRYDEEYEDVSGSGFPQIEINKMHISQSIEAPLTATDTAILSGSLSTQNGNGGGSVNFALRRVTSAKGWGELEFGAGDLQGPLFGLKLFRNLTPRCFVTTNCALQFSSRGIRPGLTTVLARNLDKNTVGYLQWRWGIQSAMNTSIVRDTKTCHFTVALQLGIPHSFALISYQHKFQDDDQTRVKGSLKAGFFGTIVEYGAERKISRHSVLGAAVSIGVPQGVSLKVKLNRASQTYFFPIHLTDQLLPSAVFYATVGPLVVYLAVHRLIIRPYLRAQKEKELEKQRENTASDILQKKQEAEAAVRLMQESVRRIIEAEESRMGLIIVNAWYGKFVNDKSRKNEKVKVIDVTVPLQCLVKDSKLILTEASKAGLPGFYDPCVGEEKSLRVLYQFRGVLHQVMVPDSEALRIPKQSHRIDTDG
modifications: full-length
For B6, the “Pancreatic ECM: Mean of log2(intensities)” value worked out at 26.03 a.u and the “Native pancreas tissue: Mean of log2(intensities)” value turned out to be 22.08 a.u.

B7: Q925H3 (protein, UniProt Q925H3 1-78, looked up)
chain: MCGYYGNYYGGRGYGCCGCGGLGYGYGGLGCGYGSYYGCGYRGLGCGYGYGCGYGSRSLYGCGYGCGSGYGSGFGYYY
modifications: full-length
Regarding B7, the “Pancreatic ECM: Mean of log2(intensities)” value turned out to be 25.99 a.u and the “Native pancreas tissue: Mean of log2(intensities)” value is recorded as 22.33 a.u.

B8: Q3UUQ7 (protein, UniProt Q3UUQ7 1-922, looked up)
chain: MFLHSVNLWNLAFYVFMVFLATLGLWDVFFGFEENKCSMSYMFEYPEYQKIELPKKLTKRYPAYELYLYGEGSYAEEHKILPLTGIPVLFLPGNAGSYKQVRSIGSIALRKAEDIDFKYHFDFFSVNFNEELVALYGGSLQKQTKFVHECIKAILKLYKGQEFAPTSVAIIGHSMGGLVARALLTLKNFKQDLINLLVTQATPHVAPVMPLDRFITEFYMNVNNYWILNARHINLTTLSVAGGFRDYQVRSGLTFLPKLSHYTSALSVVSSAVPKTWVSTDHLSIVWCKQLQLTTIRAFFDLIDADTKQITQKPKKKLSVLNHHFIRHPAKQFEENPSIISDLTGTSMWVPVKVSRWSYVAYNESDKIYFAFPLANHRKIYTHAYCQSTMLDTNSWIFGCINSTSMCRQGVDLSWKAELLPTIKSLTLRLQDYPSLSHIVVYVPSVHGSKFVVDCEFFKKEARSMQLPVTHLFSFGLSSRKVTLNTNGLYYNIELLNFGQIYQAFKVNVVSKCTGSKEEITSIYKLHIPWSYEDSLTIAQVPSSTDISLKLHVAQPENDSHVALLKMYTSSDCQYEVTIKTSFPQILGQVVRFHGGALPAYVVSSILLAYGGQLYSLLSTGYCLEYSTILDKEAKPYKVDPFVIMIKFLLGYKWFKELWDAVLLPELDAIVLTSQSMCFPLVSLILFLFGTCTAYWSGLLSSTSVQLLSSLWLALKRPAELPKDIKVMSPDLPVLTVVFLIVSWTTCGALAILLSYLYYVFKVVHLQASLTTFKNNQPVNPKHSRRSEKKSNHHKDSAVQSLRLCANDAEDSLRMHSTVINLLTWVVLLSMPSLIYWLKNLRYYFKLSPDPCKPLAFLLIPAIAILGNTHTVSVKSSKLLKTVSQFPLPLAVGVIAFGSSHLYRVPCFVIIPLVFHALCNFM
modifications: full-length
B8: the “Pancreatic ECM: Mean of log2(intensities)” value stood at 26.09 a.u and the “Native pancreas tissue: Mean of log2(intensities)” value came out at 22.01 a.u.

B9: Q9WVD5 (protein, UniProt Q9WVD5 1-301, looked up)
chain: MKSNPAIQAAIDLTAGAAGGTACVLTGQPFDTMKVKMQTFPDLYRGLTDCCLKTYSQVGFRGFYKGTSPALIANIAENSVLFMCYGFCQQVVRKVVGLDQQAKLSDLQNAAAGSFASAFAALVLCPTELVKCRLQTMYEMETSGKIAASQNTVWSVVKEIFRKDGPLGFYHGLSSTLLREVPGYFFFFGGYELSRSFFASGRSKDELGPVPLMLSGGFGGICLWLAVYPVDCIKSRIQVLSMTGKQTGLVRTFLSIVKNEGITALYSGLKPTMIRAFPANGALFLAYEYSRKLMMNQLEAW
modifications: full-length
For the molecule B9, the “Pancreatic ECM: Mean of log2(intensities)” value came out at 25.53 a.u and the “Native pancreas tissue: Mean of log2(intensities)” value is 21.86 a.u.

B10: Q91W34 (protein, UniProt Q91W34 1-466, looked up)
chain: MADAASLRAPLCTEQFGSGAPRGCSAAADGSLQWDGARRWGWLSRAPIAKPGQHAGGGGGPWAALTALSGLRSVLLPQGFPDSVSPDYLPYQLWDSVQAFASSLSGSLATQAVLQGLGVGNAKASVSAATSTWLVKDSTGMLGRIILAWWKGSKLDCNAKQWRLFADILNDVAMFLEIMAPMYPIFFTMTVSTSNLAKCIVGVAGGATRAALTMHQARRNNMADVSAKDSSQETVVNLAGLLVSLLMLPLVSDCPSLSLGCFVLLTALHIYANYRAVRALVLETLNESRLQLVLEHFLQRGEVLEPASANQMEPLWTGFWPSLSLSLGVPLHHLVSSVSELKQLVEGHHEPYLLCWNKSRNQVQVALSQEAGPETVLRAATHGLILGALQEDGPLPGELAELRHQVQADPKKESWILVRETHQVLDTLFPKFLKGLQAAGWKTEKHHLEVDEWRATWPLSPEKKVL
modifications: full-length
For the molecule B10, the “Pancreatic ECM: Mean of log2(intensities)” value is on record as 26.01 a.u and the “Native pancreas tissue: Mean of log2(intensities)” value was 21.99 a.u.
